PubChem BioAssay AID504764 | Drosophila RNAi Screening Center, 2011

Aim: 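Knock-downs that raise or lower a Notch target reporter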 (primary screen)
System: Drosophila Kc167 cells
Knock-down reagent: long dsRNA against Drosophila genes
Time to read-out: about 5 days (4 days dsRNA, then 24 h after transfection)
Treatment: transfection of constitutively active membrane-tethered Notch lacking the extracellular domain, read 24 h later
Detection: 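Light from a Notch-responsive E(spl)m3 luciferase reporter under active Notch, with control-promoter and no-Notch reporter wells to normalise; raw counts from paired wells a and b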
Direction: induced reporter light, run 1, well a and induced reporter light, run 1, well b: higher = more light from the Notch target reporter with active Notch; control promoter light, run 1, well a and control promoter light, run 1, well b: higher = more light from the viral control promoter (cell number, transfection, viability); uninduced reporter light, run 1, well a: higher = more light from the Notch target reporter without active Notch
Call rule: 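Wells with low control signal or poorly matching duplicates excluded; duplicates averaged; per source plate, z beyond ±2 for induced/control log2 ratio or beyond ±1.8 for induced/uninduced marks a hit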
Meaning of the calls: active = modifier hit (raised or lowered Notch signal); inactive = not a hit
The screen tested about 22,000 reagents; this is a random part of those that have a named target and a result. In the full data, 403 (1.9%) got an active call. 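Unnormalised raw counts per well; ratio z-scores behind the hit calls and whether each hit raises or lowers signal are not deposited.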 Not given: the amount of reagent.

Ser6 (Serine protease 6) [DRSC20574] → induced reporter light, run 1, well a = 83550; induced reporter light, run 1, well b = 1.14e5; control promoter light, run 1, well a = 79535; control promoter light, run 1, well b = 1.22e5; uninduced reporter light, run 1, well a = 8500; Call = inactive
Dph5 (Diphthamide methyltransferase) [DRSC16653] → induced reporter light, run 1, well a = 94155; induced reporter light, run 1, well b = 1.05e5; control promoter light, run 1, well a = 1.21e5; control promoter light, run 1, well b = 1.04e5; uninduced reporter light, run 1, well a = 12055; Call = inactive
nej (nejire) [DRSC18006] → induced reporter light, run 1, well a = 1.27e5; induced reporter light, run 1, well b = 1.15e5; control promoter light, run 1, well a = 1.99e5; control promoter light, run 1, well b = 1.56e5; uninduced reporter light, run 1, well a = 9105; Call = inactive
nej (nejire) [DRSC18801] → induced reporter light, run 1, well a = 70185; induced reporter light, run 1, well b = 86445; control promoter light, run 1, well a = 59630; control promoter light, run 1, well b = 58450; uninduced reporter light, run 1, well a = 7955; Call = inactive
Df31 (Decondensation factor 31) [DRSC03738] → induced reporter light, run 1, well a = 1.71e5; induced reporter light, run 1, well b = 1.61e5; control promoter light, run 1, well a = 1.62e5; control promoter light, run 1, well b = 1.89e5; uninduced reporter light, run 1, well a = 16805; Call = inactive
CASK [DRSC14588] → induced reporter light, run 1, well a = 1.75e5; induced reporter light, run 1, well b = 1.58e5; control promoter light, run 1, well a = 1.68e5; control promoter light, run 1, well b = 1.52e5; uninduced reporter light, run 1, well a = 11215; Call = inactive
CASK [DRSC16597] → induced reporter light, run 1, well a = 1.88e5; induced reporter light, run 1, well b = 1.84e5; control promoter light, run 1, well a = 2.24e5; control promoter light, run 1, well b = 2.02e5; uninduced reporter light, run 1, well a = 15435; Call = inactive
CASK [DRSC16598] → induced reporter light, run 1, well a = 1.48e5; induced reporter light, run 1, well b = 1.32e5; control promoter light, run 1, well a = 1.72e5; control promoter light, run 1, well b = 1.63e5; uninduced reporter light, run 1, well a = 10560; Call = inactive
Actn3 (alpha actinin 3) [DRSC14106] → induced reporter light, run 1, well a = 2.55e5; induced reporter light, run 1, well b = 3.05e5; control promoter light, run 1, well a = 2.92e5; control promoter light, run 1, well b = 2.76e5; uninduced reporter light, run 1, well a = 20370; Call = inactive
Polr2E (RNA polymerase II, I and III subunit E) [DRSC06100] → induced reporter light, run 1, well a = 28775; induced reporter light, run 1, well b = 21335; control promoter light, run 1, well a = 26570; control promoter light, run 1, well b = 25905; uninduced reporter light, run 1, well a = 2860; Call = inactive
Hrb98DE (Heterogeneous nuclear ribonucleoprotein at 98DE) [DRSC16709] → induced reporter light, run 1, well a = 1.26e5; induced reporter light, run 1, well b = 1.36e5; control promoter light, run 1, well a = 1.89e5; control promoter light, run 1, well b = 2.17e5; uninduced reporter light, run 1, well a = 10532; Call = inactive
CG1983 [DRSC15410] → induced reporter light, run 1, well a = 1.49e5; induced reporter light, run 1, well b = 1.24e5; control promoter light, run 1, well a = 1.74e5; control promoter light, run 1, well b = 1.79e5; uninduced reporter light, run 1, well a = 10970; Call = inactive
